# Record: PubChem BioAssay AID504764 (Drosophila RNAi Screening Center, 2011)
# Assay: 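Knock-downs that raise or lower a Notch target reporter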 (primary screen)
# Cell system: Drosophila Kc167 cells
# Reagents: long dsRNA against Drosophila genes
# Duration: about 5 days (4 days dsRNA, then 24 h after transfection)
# Treatment: transfection of constitutively active membrane-tethered Notch lacking the extracellular domain, read 24 h later
# Read-out: 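Firefly luciferase from an E(spl)m3 reporter with active Notch, plus control-promoter and uninduced reporter wells for normalisation; unnormalised counts, duplicate wells a and b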
# Reading the numbers: induced reporter light, run 1, well a and induced reporter light, run 1, well b: higher = more light from the Notch target reporter with active Notch; control promoter light, run 1, well a and control promoter light, run 1, well b: higher = more light from the viral control promoter (cell number, transfection, viability); uninduced reporter light, run 1, well a: higher = more light from the Notch target reporter without active Notch
# Hit rule: 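Wells with low control signal or poorly matching duplicates excluded; duplicates averaged; per source plate, z beyond ±2 for induced/control log2 ratio or beyond ±1.8 for induced/uninduced marks a hit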
# Calls: active = modifier hit (raised or lowered Notch signal); inactive = not a hit
# The deposit covers about 22,000 reagents; below is an unselected part of those with a known target gene and a result. In the full data, 403 (1.9%) are marked active. 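Unnormalised raw counts per well; ratio z-scores behind the hit calls and whether each hit raises or lowers signal are not deposited.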 A plus sign joins genes that one reagent is predicted to hit. No sequences are given here. Not stated in the record: the amount of reagent.
gene,dsRNA,"induced reporter light, run 1, well a","induced reporter light, run 1, well b","control promoter light, run 1, well a","control promoter light, run 1, well b","uninduced reporter light, run 1, well a",outcome
CG15461,DRSC20532,1.14e5,1.06e5,1.22e5,1.22e5,11885,inactive
CG9107,DRSC03138,1.32e5,1.11e5,1.17e5,1.31e5,9230,inactive
CG33792,DRSC05355,1.14e5,1.06e5,1.91e5,2.61e5,9542,inactive
CG14088,DRSC10092,1.14e5,1.30e5,1.92e5,1.25e5,9195,inactive
Jhbp16,DRSC15039,2.07e5,1.92e5,2.02e5,2.13e5,13510,inactive
CG6414,DRSC18401,1.36e5,1.53e5,3.23e5,2.57e5,11125,inactive
CG33252,DRSC19162,85425,1.01e5,93545,79130,6955,inactive
CG1701,DRSC06641,2.30e5,2.27e5,2.69e5,2.46e5,17235,inactive
CG5327,DRSC06930,1.05e5,96445,1.41e5,1.41e5,9230,inactive
Tmep,DRSC08215,94355,1.01e5,1.61e5,1.88e5,6545,inactive
CG9917,DRSC20218,1.41e5,1.84e5,2.15e5,1.86e5,10830,inactive
CG31268,DRSC13203,1.20e5,1.30e5,1.78e5,1.85e5,9100,inactive
Grasp65,DRSC10917,1.46e5,98385,94270,83225,11335,inactive
CG11997,DRSC14464,1.01e5,1.29e5,1.05e5,1.09e5,7760,inactive
CG31313,DRSC13044,1.03e5,77490,96370,1.02e5,7432,inactive
BBS9,DRSC04257,43865,51315,46640,57365,4680,inactive
CG31975 + ovm,DRSC00323,92875,67065,54780,31535,5690,inactive
Gr77a,DRSC11446,2.70e5,2.44e5,3.38e5,3.63e5,19988,inactive
CG1888,DRSC06797,2.03e5,2.41e5,2.91e5,2.72e5,17975,inactive
CrebB,DRSC20232,57575,43410,62390,48965,8105,inactive
msl-1,DRSC03573,58100,53520,89480,1.06e5,5460,inactive
GluProRS,DRSC14095,1.30e5,1.34e5,1.81e5,2.16e5,9770,inactive
cib,DRSC18660,1.52e5,1.75e5,2.98e5,3.33e5,9850,inactive
CG17816,DRSC15277,96820,1.21e5,1.35e5,1.09e5,9650,inactive
CG11291,DRSC04097,68065,42150,59790,84210,1825,inactive
Alg13,DRSC14864,1.13e5,1.37e5,1.86e5,1.61e5,10935,inactive
Mal-A7,DRSC06077,1.92e5,2.01e5,2.18e5,2.24e5,17115,inactive
mask,DRSC15370,85335,80475,97210,97810,8482,inactive
mask,DRSC16005,52675,53300,79800,98360,5920,inactive
mask,DRSC16018,38900,51570,58005,65975,5255,inactive
Den1,DRSC07195,89585,89785,1.27e5,78260,8370,inactive
Hsp60B,DRSC00542,2.14e5,2.43e5,2.79e5,3.17e5,18525,inactive
CG2310,DRSC15438,1.58e5,1.33e5,2.25e5,2.18e5,12205,inactive
aurB,DRSC03548,96245,97060,1.54e5,1.52e5,10690,active

Reformatted: 3 of the entries above
gene | dsRNA | induced reporter light, run 1, well a | induced reporter light, run 1, well b | control promoter light, run 1, well a | control promoter light, run 1, well b | uninduced reporter light, run 1, well a | outcome
Jhbp16 | DRSC15039 | 2.07e5 | 1.92e5 | 2.02e5 | 2.13e5 | 13510 | inactive
CG6414 | DRSC18401 | 1.36e5 | 1.53e5 | 3.23e5 | 2.57e5 | 11125 | inactive
CG33252 | DRSC19162 | 85425 | 1.01e5 | 93545 | 79130 | 6955 | inactive
